In assay [1] the target is FLAG-tagged MLL5 (human) (UniProt Q8IZD2). Kind of assay: co-IP; HEK293T cotransfected with tagged plasmids, whole-cell extracts 48 h after transfection; lysis buffer 1% NP-40, 20 mM HEPES, 20 mM KCl, 150 mM NaCl, 5 mM EDTA, pH 7.4; Protein-G Sepharose with anti-FLAG or anti-V5, 4 °C; in Fig. 6b also with MLL5-HA plasmid (0, 1000, 3000 ng).
The target is the same in assay [2]. The assay is described as above. The source holds these as a separate data set.

Sequences of proteins named here, by UniProt entry; tags and fusion partners are left off.
UniProt Q8IZD2: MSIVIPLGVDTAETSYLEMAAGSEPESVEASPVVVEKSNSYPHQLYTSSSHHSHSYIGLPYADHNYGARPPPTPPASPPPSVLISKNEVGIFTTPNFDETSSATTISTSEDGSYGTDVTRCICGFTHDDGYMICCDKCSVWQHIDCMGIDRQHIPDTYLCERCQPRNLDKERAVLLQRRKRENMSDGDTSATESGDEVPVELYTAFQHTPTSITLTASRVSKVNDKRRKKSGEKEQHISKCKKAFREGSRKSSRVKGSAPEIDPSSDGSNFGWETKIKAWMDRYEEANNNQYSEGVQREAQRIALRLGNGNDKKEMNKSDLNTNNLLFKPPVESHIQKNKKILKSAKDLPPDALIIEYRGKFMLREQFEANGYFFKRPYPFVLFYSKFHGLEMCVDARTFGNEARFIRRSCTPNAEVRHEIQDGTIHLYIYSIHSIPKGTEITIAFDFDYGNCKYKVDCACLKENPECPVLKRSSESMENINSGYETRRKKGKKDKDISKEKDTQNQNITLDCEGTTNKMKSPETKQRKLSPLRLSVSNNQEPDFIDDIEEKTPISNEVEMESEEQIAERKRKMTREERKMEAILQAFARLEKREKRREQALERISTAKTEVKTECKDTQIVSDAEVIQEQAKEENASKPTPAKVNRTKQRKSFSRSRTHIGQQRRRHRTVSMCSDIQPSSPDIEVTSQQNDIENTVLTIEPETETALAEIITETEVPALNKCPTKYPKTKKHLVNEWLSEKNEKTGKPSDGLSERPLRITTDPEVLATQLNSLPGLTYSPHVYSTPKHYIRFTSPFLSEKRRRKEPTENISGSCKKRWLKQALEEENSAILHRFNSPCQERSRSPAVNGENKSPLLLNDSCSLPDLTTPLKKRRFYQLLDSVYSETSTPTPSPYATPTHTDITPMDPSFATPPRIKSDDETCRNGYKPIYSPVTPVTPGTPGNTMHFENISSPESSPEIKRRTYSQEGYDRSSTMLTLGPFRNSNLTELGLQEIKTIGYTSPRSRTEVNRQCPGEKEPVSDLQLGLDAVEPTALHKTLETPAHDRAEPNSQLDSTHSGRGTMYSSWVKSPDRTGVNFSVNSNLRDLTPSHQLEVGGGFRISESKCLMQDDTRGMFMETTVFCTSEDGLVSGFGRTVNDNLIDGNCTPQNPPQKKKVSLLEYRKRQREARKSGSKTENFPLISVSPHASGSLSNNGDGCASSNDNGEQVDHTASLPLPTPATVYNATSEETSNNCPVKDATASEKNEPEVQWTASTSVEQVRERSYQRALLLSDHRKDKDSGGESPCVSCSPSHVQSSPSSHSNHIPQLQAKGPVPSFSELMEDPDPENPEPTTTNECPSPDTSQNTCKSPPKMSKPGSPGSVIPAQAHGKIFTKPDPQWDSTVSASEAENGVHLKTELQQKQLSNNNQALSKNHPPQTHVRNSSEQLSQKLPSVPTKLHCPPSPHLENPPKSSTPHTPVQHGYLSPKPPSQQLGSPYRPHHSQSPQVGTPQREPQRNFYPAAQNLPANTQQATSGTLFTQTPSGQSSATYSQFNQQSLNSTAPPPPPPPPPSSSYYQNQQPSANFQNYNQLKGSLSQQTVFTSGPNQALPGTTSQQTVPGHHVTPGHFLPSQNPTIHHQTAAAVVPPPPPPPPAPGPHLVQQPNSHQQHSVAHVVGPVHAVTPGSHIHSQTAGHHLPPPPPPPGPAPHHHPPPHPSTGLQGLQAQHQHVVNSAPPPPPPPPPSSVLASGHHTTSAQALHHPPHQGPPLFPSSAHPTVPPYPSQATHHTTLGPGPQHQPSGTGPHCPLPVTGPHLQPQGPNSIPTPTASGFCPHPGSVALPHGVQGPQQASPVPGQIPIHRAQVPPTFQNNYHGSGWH
UniProt Q9UNE7: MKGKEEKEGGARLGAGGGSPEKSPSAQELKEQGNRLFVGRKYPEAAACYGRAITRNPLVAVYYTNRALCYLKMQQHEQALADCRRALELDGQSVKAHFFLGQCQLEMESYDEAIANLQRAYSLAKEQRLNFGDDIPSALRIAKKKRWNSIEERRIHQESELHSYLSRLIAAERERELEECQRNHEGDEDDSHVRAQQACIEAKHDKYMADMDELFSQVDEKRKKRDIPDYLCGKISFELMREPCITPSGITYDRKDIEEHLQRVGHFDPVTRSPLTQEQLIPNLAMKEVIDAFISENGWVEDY

Read-outs that look alike come from different tables or passages of the source. These are yes or no findings as the source states them, for the method shown. Binding seen in cells or lysates may run through a third protein. Some results given as binding are weak or reduced against the parent protein; the word gives no strength. For some assays here: Tags and fused reporters may be left off the sequences shown.

On to “V5-tagged STUB1 (from UniProt Q9UNE7 1-303) (enzyme)”, for which the binding result in the assay with FLAG-tagged MLL5 (human) [1] is given as “binds”.

B1: RIG-I-HA (protein, UniProt O95786 1-925)
chain: MTTEQRRSLQAFQDYIRKTLDPTYILSYMAPWFREEEVQYIQAEKNNKGPMEAATLFLKFLLELQEEGWFRGFLDALDHAGYSGLYEAIESWDFKKIEKLEEYRLLLKRLQPEFKTRIIPTDIISDLSECLINQECEEILQICSTKGMMAGAEKLVECLLRSDKENWPKTLKLALEKERNKFSELWIVEKGIKDVETEDLEDKMETSDIQIFYQEDPECQNLSENSCPPSEVSDTNLYSPFKPRNYQLELALPAMKGKNTIICAPTGCGKTFVSLLICEHHLKKFPQGQKGKVVFFANQIPVYEQQKSVFSKYFERHGYRVTGISGATAENVPVEQIVENNDIIILTPQILVNNLKKGTIPSLSIFTLMIFDECHNTSKQHPYNMIMFNYLDQKLGGSSGPLPQVIGLTASVGVGDAKNTDEALDYICKLCASLDASVIATVKHNLEELEQVVYKPQKFFRKVESRISDKFKYIIAQLMRDTESLAKRICKDLENLSQIQNREFGTQKYEQWIVTVQKACMVFQMPDKDEESRICKALFLYTSHLRKYNDALIISEHARMKDALDYLKDFFSNVRAAGFDEIEQDLTQRFEEKLQELESVSRDPSNENPKLEDLCFILQEEYHLNPETITILFVKTRALVDALKNWIEGNPKLSFLKPGILTGRGKTNQNTGMTLPAQKCILDAFKASGDHNILIATSVADEGIDIAQCNLVILYEYVGNVIKMIQTRGRGRARGSKCFLLTSNAGVIEKEQINMYKEKMMNDSILRLQTWDEAVFREKILHIQTHEKFIRDSQEKPKPVPDKENKKLLCRKCKALACYTADVRVIEECHYTVLGDAFKECFVSRPHPKPKQFSSFEKRAKIFCARQNCSHDWGIHVKYKTFEIPVIKIESFVVEDIATGVQTLYSKWKDFHFEKIPFDPAEMSK
In the case of B1, the binding result with FLAG-tagged MLL5 (human) [2] is listed as “binds”.

(Values after paper PMC5871759.)
